Source: patent US20180344870A1
These are yes or no findings as the source states them, for the method shown. Some results given as binding are weak or reduced against the parent protein; the word gives no strength.

Sequences of proteins named here, by UniProt entry; tags and fusion partners are left off. A change or cut given only in a name is not applied to a line headed by its entry. Residues count along the entry.
UniProt Q07011: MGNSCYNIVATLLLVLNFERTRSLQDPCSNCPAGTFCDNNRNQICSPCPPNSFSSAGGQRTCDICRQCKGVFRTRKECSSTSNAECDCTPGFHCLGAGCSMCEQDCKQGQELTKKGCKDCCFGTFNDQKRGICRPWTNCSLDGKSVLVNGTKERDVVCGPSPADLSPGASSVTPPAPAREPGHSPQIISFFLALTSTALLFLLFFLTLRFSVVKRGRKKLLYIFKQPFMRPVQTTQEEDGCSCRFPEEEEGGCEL
UniProt P41273, residues 71-254: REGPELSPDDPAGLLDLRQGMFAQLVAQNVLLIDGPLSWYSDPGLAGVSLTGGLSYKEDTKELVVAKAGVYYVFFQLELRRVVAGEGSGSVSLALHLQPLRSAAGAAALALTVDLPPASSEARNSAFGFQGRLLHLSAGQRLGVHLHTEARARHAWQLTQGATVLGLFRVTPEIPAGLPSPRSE

Columns and labels:
[1] = molecular target: human CD137 (Acro Biosystem, 41B-H5227) (human) (UniProt Q07011); assay: SPR, CD137L over CD137/BA001-F(ab′)2 complex (FIGS. 2A and 2B)
[2] = molecular target: human CD137 (Acro Biosystem, 41B-H5227) (human) (UniProt Q07011); assay: SPR (BIAcore T200), 200 nM CD137L over CD137 held by captured BA001-F(ab′)2
[3] = molecular target: human CD137 (Acro Biosystem, 41B-H5227) (human) (UniProt Q07011); assay: SPR (BIAcore T200), 60 nM CD137L over captured preformed CD137/BA001-F(ab′)2 complex

binding [1]: binds | binding [2]: binds | binding [3]: binds
Substance: Recombinant Human 4-1BB Ligand/TNFSF9 (His-tag), R&D Systems 2295-4L-025 (from UniProt P41273 71-254)
